Results published in PMC12308784, “Organometallic Half-Sandwich Complexes of 1,10-Phenanthroline Derivatives with Improved Solubility, Albumin-Binding, and Nanoformulation Potential Targeting Drug Resistance in Cancer” (Inorganic Chemistry, 2025).

Experiment: ternary complex formation with histidine model 1-methylimidazole by 1H NMR
Details: PBS’ pH 7.4
Excerpt: Our other aim was to investigate the binding kinetics of RuCymBP over a longer period of time, since MeIm has no such stability problems compared to HSA in a 2 week follow-up.
Slow exchange of the aqua and chlorido complexes on the NMR time scale is not unique for RuCym complexes; formerly we have observed the same phenomenon with 2-picolinate and cyclometalated 4-phenylthiazole complexes. , The ternary complex formation with MeIm is rather slow; at a 1:1 ratio, the emergence of a new peak can be observed after 6 days, and only ca. 10% ternary complex forms after 14 days. By increasing the MeIm excess to 10-fold, the ternary complex becomes detectable after 8 h and about 2/3 of the metal complex transforms to the ternary species after 14 days. ^1H NMR studies on the RhCp*BP – MeIm system indicated a more rapid and almost quantitative interaction (Figure S21). The formation of the ternary complex proceeds within 30 min with 87% conversion. The quantity of the ternary complex formed with MeIm agrees very well with previously reported data on RhCp*BPY–MeIm (67%), although the complex formation was reported to be slower for the latter. The coordination of the present RhCp* complexes to His imidazole groups in albumin is therefore highly probable; however, the specific binding sites and the possible involvement of other side chains remain to be elucidated in future studies.
A Bruker AVANCE III HD Ascend 500 Plus instrument was used for NMR studies. For the characterization of the complexes both the ^1H and ^13C NMR spectra were recorded in CD3OD (10 mM, t = 25 °C). The ^13C NMR spectra were obtained with the attached proton test distinguishing CH and CH3 as positive peaks and quaternary carbons and CH2 as negative peaks. ^1H NMR spectroscopic measurements of the complexes with MeIm were carried out employing a WATERGATE water suppression pulse scheme in the presence of 10% (v/v) D2O/90% (v/v) H2O. DSS internal standard was added to the samples to obtain reference peaks.
Figure S 19. Fluorescence emission spectra of HSA in the presence of RhCp*BP over 5 h { cRhCp*BP = […]

Molecule | conversion to ternary complex with MeIm (within 30 min) [%] | fraction of metal complex transformed to the ternary species (10-fold MeIm excess, after 14 days) | ternary complex formed with MeIm (complex:MeIm 1:1, after 14 days, 25 °C)
[Rh(III)(η^5-C5Me5)(bathophenanthroline)Cl]Cl [RhCp*BP] | 87 | – | –
Cc1ccc(C(C)C)cc1.[Cl-].[Cl-].[Ru+2].c1ccc(-c2ccnc3c2ccc2c(-c4ccccc4)ccnc23)cc1 [RuCymBP, [Ru(II)(η^6-p-cymene)(bathophenanthroline)Cl]Cl] | – | about 2/3 | ca. 10%
